# According to PubChem BioAssay AID2685 (National Center for Advancing Translational Sciences (NCATS), 2010):
# The other results are listed elsewhere or left out. Further columns of the screen follow, without active or inactive calls. The list favours compounds with an active or inconclusive main result. The note in brackets gives the kind of curve behind each potency; many fits are weak.
# Assay: qHTS Assay for Lipid Storage Modulators in Drosophila S3 Cells;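 for cell number change: cells counted by Cell Tracker Red CMTPX staining in the red channel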
# Details: BODIPY lipid droplet fluorescence, 18-24 h; for cell number change: measured here: cell count max response, cells fed with added oleic acid
# Method in brief: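 Drosophila S3 cells got compounds at several concentrations plus oleic acid (400 uM solution). Laser-scanning cytometry with 488 nm excitation read lipid droplets at 500-530 nm and cells at 575-640 nm. Percent activity was relative to 20 uM Triacsin C.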
# [1] = measured here: lipid fluorescence (Fed channel) AC50, cells fed with added oleic acid
# [2] = measured here: cell number channel AC50, cells fed with added oleic acid
compound,measurement,setting,value
COc1ccccc1NS(=O)(=O)c1ccc2oc(SCc3ccc(C#N)cc3)nc2c1,cell number change,,-7.7%
same,AC50,[1],"3.66 µM [rising, single point]"
CC(C)CC1C(C#N)=C(N)Oc2n[nH]c(-c3ccccc3)c21 (stereo unspecified),cell number change,,-31.6%
same,AC50,[2],"14.6 µM [falling, single point]"
same,AC50,[1],"13 µM [falling, partial curve]"
CCCN(CC1CC1)C(=O)COc1ccccc1C(=O)NCc1ccccc1,cell number change,,29.8%
same,AC50,[2],"0.103 µM [rising, full curve, poor fit]"
same,AC50,[1],"6.51 µM [rising, single point]"
Cc1ccc(-c2csc3ncnc(N4CCN(C)CC4)c23)cc1C,cell number change,,-0.777%
CC(C)N(C(=O)c1ccc(-c2ccccc2F)cc1)C(C)C,cell number change,,-11.5%
same,AC50,[1],"0.116 µM [falling, partial curve, poor fit]"
Cc1nn2c(NCCCN3CCOCC3)c3c(nc2c1-c1ccccc1)CCC3,cell number change,,-17.2%
same,AC50,[1],"5.8 µM [rising, full curve]"
CC(C)(C)NS(=O)(=O)c1ccc(CCC(=O)NCc2cccnc2)cc1,cell number change,,55.1%
same,AC50,[2],"32.6 µM [rising, single point]"
same,AC50,[1],"29.1 µM [rising, single point]"
NC(=S)N/N=C/c1ccc2c(c1)OCCO2,cell number change,,2.1%
N#CC1=C(N)NC(SCc2ccc(Cl)cc2)=C(C#N)C12CCCCC2,cell number change,,44.5%
same,AC50,[2],"2.31 µM [rising, full curve]"
same,AC50,[1],"6.51 µM [rising, single point]"
Cc1ccc(N2CN(S(=O)(=O)c3cccc([N+](=O)[O-])c3)c3nc4ccccc4nc32)cc1,cell number change,,22.2%
same,AC50,[1],"29.1 µM [rising, single point]"
Cc1ccc(OCC(=O)NCCCNC(=O)COc2ccc(C)cc2)cc1,cell number change,,4.97%
same,AC50,[1],"29.1 µM [falling, single point]"
CCOc1ccc(S(=O)(=O)NCCSc2ccccc2)cc1,cell number change,,10.3%
COc1ccc(/C=C/c2noc(-c3ccccc3OC(C)=O)n2)cc1,cell number change,,-8.45%
O=C(Nc1ccc([N+](=O)[O-])cn1)C1CCCCC1,cell number change,,35.4%
same,AC50,[2],"25.9 µM [rising, single point]"
same,AC50,[1],"29.1 µM [rising, single point]"
NS(=O)(=O)c1cc(Cl)c(Cl)c(S(N)(=O)=O)c1,cell number change,,-24.8%
same,AC50,[1],"6.51 µM [falling, partial curve]"
COc1ccccc1/C=C/CN1CCC(Oc2ccc(C(=O)N3CCCCC3)cc2)CC1,cell number change,,-11.4%
same,AC50,[1],"29.1 µM [rising, single point]"
Cc1cccc(COCC(Cc2ccccc2)N2CCN(C(=O)c3cccc(C)c3)CCC2=O)c1 (stereo unspecified),cell number change,,43.5%
same,AC50,[2],"29.1 µM [rising, single point]"
same,AC50,[1],"6.51 µM [rising, single point]"
Cn1c2ccccc2c2cnn(CC(=O)Nc3ccc(F)cc3F)c(=O)c21,cell number change,,-1.22%
same,AC50,[1],"4.11 µM [rising, full curve]"
COc1cccc(Nc2nc(-c3cccs3)nc3ccccc23)c1,cell number change,,19.9%
same,AC50,[1],"0.731 µM [rising, partial curve, poor fit]"
O=C(CCc1nnc(CCCCc2ccccc2)o1)NC1CCCC1,cell number change,,34.5%
c1ccc(OCCOCCN2CCc3ccccc3C2)cc1,cell number change,,17%
same,AC50,[1],"4.61 µM [rising, partial curve, poor fit]"
COc1ccccc1NC(=O)Cn1c2ccccc2c2nc3n(c(=O)c21)CCS3,cell number change,,31.9%
same,AC50,[2],"0.0731 µM [rising, full curve, poor fit]"
same,AC50,[1],"4.11 µM [rising, full curve, poor fit]"
COc1cccc(/C=N/NC(=O)N/N=C/c2cccc(OC)c2O)c1O,cell number change,,-16.4%
same,AC50,[1],"29.1 µM [falling, single point]"
O=[N+]([O-])c1cc(/C=N/N2CCN(c3ccccc3)CC2)ccc1Cl,cell number change,,19.9%
same,AC50,[1],"29.1 µM [rising, single point]"
COc1ccc(S(=O)(=O)N2CCOC2CNC(=O)C(=O)NCc2ccncc2)cc1OC (stereo unspecified),cell number change,,1.78%
O=C(O)C1CCCN1C(=O)Nc1ccc(Cl)cc1 (stereo unspecified),cell number change,,22.1%
same,AC50,[1],"6.51 µM [rising, partial curve]"
CSc1ccccc1NC(=O)CN(C)C(=O)C1CCN(C(=O)Nc2ccccc2)CC1,cell number change,,26.1%
CCc1ccc(C(C(=O)NC2CCCC2)N(C(=O)c2csnn2)C2CC2)cc1 (stereo unspecified),cell number change,,-16.7%
C=CCN(CC=C)C(=S)NC(=O)c1ccc(-c2ccccc2)cc1,cell number change,,5.65%
same,AC50,[2],"6.51 µM [rising, partial curve, poor fit]"
same,AC50,[1],"6.51 µM [rising, single point]"
O=[N+]([O-])c1cccc(CN2C[C@@]34C=C[C@@H](C[C@@H]3S2(=O)=O)O4)c1,AC50,[1],"20.6 µM [rising, single point]"
CCn1c(O)c(C=NCc2ccccc2)sc1=S,cell number change,,-5.07%
same,AC50,[1],"0.731 µM [falling, full curve, poor fit]"
Cc1ccccc1OCC(=O)Nc1cccc(NC(=O)c2ccco2)c1,cell number change,,-19.3%
COc1ccc(Cn2nnnc2CN2CCc3ccccc3C2)cc1,cell number change,,-6.25%
same,AC50,[1],"29.1 µM [rising, single point]"
COc1ccc2c(c1)OC13CCCCC1C2C(C(=O)c1ccccc1)C(=O)N3 (stereo unspecified),cell number change,,4.09%
same,AC50,[1],"16.4 µM [falling, partial curve]"
Cc1c(C(=O)N2CCN(C(=O)c3ccccc3)CC2)oc2ccc(F)cc12,AC50,[1],"18.4 µM [falling, partial curve, poor fit]"
NC(=O)NC(=O)CN1c2cccc3cccc(c23)S1(=O)=O,cell number change,,23.5%
same,AC50,[1],"0.58 µM [rising, single point]"
C/C(O)=c1/cnc2nc3ccccc3n2c1=O,cell number change,,-14.5%
same,AC50,[2],"0.00517 µM [falling, full curve, poor fit]"
Cc1cc(=O)oc2c(C)c(OCC(=O)NCc3ccccn3)ccc12,cell number change,,-11%
same,AC50,[2],"2.59 µM [falling, partial curve, poor fit]"
Cc1ccc(O)c(NC2=C(Cl)C(=O)N(Cc3ccccc3)C2=O)c1,cell number change,,-8.28%
COc1ccc(C(=O)NN(C)c2nc(-c3ccccc3)cc(C)c2S(C)(=O)=O)cc1,cell number change,,47.3%
same,AC50,[2],"1.46 µM [rising, full curve]"

# Quoted at random: 3 records from the list
compound,measurement,setting,value
Cn1c2ccccc2c2cnn(CC(=O)Nc3ccc(F)cc3F)c(=O)c21,AC50,[1],"4.11 µM [rising, full curve]"
COc1ccccc1/C=C/CN1CCC(Oc2ccc(C(=O)N3CCCCC3)cc2)CC1,AC50,[1],"29.1 µM [rising, single point]"
CSc1ccccc1NC(=O)CN(C)C(=O)C1CCN(C(=O)Nc2ccccc2)CC1,cell number change,,26.1%

# As a short view, some entries already given:
compound,measurement,setting,value
CCCN(CC1CC1)C(=O)COc1ccccc1C(=O)NCc1ccccc1,cell number change,,29.8%
same,AC50,[2],"0.103 µM [rising, full curve, poor fit]"
